The test system of this test is P388 leukemia ip, CD2F1 mice, survival T/C. The test is described as follows: NCI In Vivo Anticancer Drug Screen. Data for tumor model P388 Leukemia (intraperitoneal) in CD2F1 (CDF1) mice. The note with it: T/C endpoint: median survival time, higher T/C = longer survival.
Setting [1] is: dose: 200.0 mg/kg/injection, schedule: Q01DX005 (ip), vehicle: saline with Tween-80.
The mark [2] stands for this setting: dose: 200.0 mg/kg/injection, schedule: Q01DX001 (ip), vehicle: Klucel (hydroxypropylcellulose) (HPC).
Setting [3] is: dose: 50.0 mg/kg/injection, schedule: Q01DX005 (ip), vehicle: Klucel (hydroxypropylcellulose) (HPC).
[4] abbreviates: dose: 100.0 mg/kg/injection, schedule: Q01DX005 (ip), vehicle: Klucel (hydroxypropylcellulose) (HPC).
Setting [5] is: dose: 200.0 mg/kg/injection, schedule: Q01DX005 (ip), vehicle: Klucel (hydroxypropylcellulose) (HPC).
Where [6] appears, read: dose: 200.0 mg/kg/injection, schedule: Q01DX009 (ip), vehicle: saline.
[7] abbreviates: dose: 400.0 mg/kg/injection, schedule: Q01DX009 (ip), vehicle: Klucel (hydroxypropylcellulose) (HPC).
[8] abbreviates: dose: 25.0 mg/kg/injection, schedule: Q01DX009 (ip), vehicle: suspension in saline.
The mark [9] stands for this setting: dose: 200.0 mg/kg/injection, schedule: Q01DX009 (ip), vehicle: saline with Tween-80.
The mark [10] stands for this setting: dose: 12.5 mg/kg/injection, schedule: Q01DX009 (ip), vehicle: saline with Tween-80.
The mark [11] stands for this setting: dose: 50.0 mg/kg/injection, schedule: Q01DX009 (ip), vehicle: saline with Tween-80.
The mark [12] stands for this setting: dose: 100.0 mg/kg/injection, schedule: Q04DX003 (ip), vehicle: saline with Tween-80.
The mark [13] stands for this setting: dose: 200.0 mg/kg/injection, schedule: Q04DX003 (ip), vehicle: saline with Tween-80.
Where [14] appears, read: dose: 400.0 mg/kg/injection, schedule: Q04DX003 (ip), vehicle: saline with Tween-80.

The list shows only some results of the screen, not a fair sample: it is rich in T/C values a quarter to a half above the control, in often repeated tests (any T/C) and in doses without a T/C. Other doses and runs of a compound stand elsewhere. T/C gives the treated animals as a percentage of the vehicle group. Some entries give survivors of the animals treated and no T/C: the source holds a T/C of zero for them, seemingly a mark for toxic or unscored doses. Some survivor counts are full or nearly so, which does not show that the dose was tolerated: the source hardly ever lists a survival T/C far under the control, and the zero likely stands for such cases as well. Survivors were counted at the toxicity check, usually on the fifth day, unless a day is given; later deaths do not show. Schedule codes are those of the source, read here as Q, the interval in days (D) or hours (H), X, the number of doses. Some structures stand for samples that the source files as different forms (salt, stereo form or complex); doses refer to the form tested. Some entries hold several experiments; the results are listed from low to high. For survival time, the PubChem record calls one and a half times the control and up active, and a quarter to a half above the control has no call in these data; cut-offs in other NCI protocols can differ. Signs of the kind (2×) say how often a value occurs here. Some T/C values carry the count of animals alive at the toxicity check (mostly the fifth day); without a count, all were alive then.

For `CCN1/C(=C/C=C/C=C\C=C\c2sc3ccc4ccccc4c3[n+]2CC)Sc2ccc3ccccc3c21`, the T/C is 138 % of control (dose: 3.12 mg/kg/injection, schedule: Q04DX002 (ip), vehicle: saline with Tween-80) and 125 % of control (dose: 25.0 mg/kg/injection, schedule: Q04DX002 (ip), vehicle: saline with Tween-80). The survivor count (dose: 50.0 mg/kg/injection, schedule: Q04DX002 (ip), vehicle: saline with Tween-80) is 0 of 6 and 2 of 6.

With `CCOc1cccc(/C=C2/C(=O)N(Cc3ccco3)SC2=S)c1O`, the survivor count (dose: 6.25 mg/kg/injection, schedule: Q01DX009 (ip), vehicle: Klucel (hydroxypropylcellulose) (HPC)) is 6 of 6; the survivor count (dose: 50.0 mg/kg/injection, schedule: Q01DX009 (ip), vehicle: Klucel (hydroxypropylcellulose) (HPC)) is 6 of 6; the survivor count (dose: 100.0 mg/kg/injection, schedule: Q01DX009 (ip), vehicle: Klucel (hydroxypropylcellulose) (HPC)) is 6 of 6; the survivor count (dose: 200.0 mg/kg/injection, schedule: Q01DX009 (ip), vehicle: Klucel (hydroxypropylcellulose) (HPC)) was 3 of 6.

For the compound `[N-]=[N+]=Nc1ccccc1C(=O)NCCCNC(=O)c1ccccc1N=[N+]=[N-]`, the survivor count is 6 of 6 (dose: 50.0 mg/kg/injection, schedule: Q01DX005 (ip), vehicle: saline with Tween-80); 6 of 6 (dose: 100.0 mg/kg/injection, schedule: Q01DX005 (ip), vehicle: saline with Tween-80); 6 of 6 under setting [1].

For the compound `Cc1ccc(O)c(N=Nc2c(O)cc(S(=O)(=O)O)c3ccccc23)c1`, under “dose: 200.0 mg/kg/injection, schedule: Q01DX009 (ip), vehicle: suspension in saline”, the survivor count is 1 of 6.

For the compound `CC/C(=C(/CC)c1ccc(OCC(=O)N/N=C2/C=C3CCC4C(CCC5(C)C(O)CCC45)C3(C)CC2)cc1)c1ccc(OCC(=O)N/N=C2\C=C3CCC4C(CCC5(C)C(O)CCC45)C3(C)CC2)cc1` (stereo not drawn), under setting [2], the survivor count is reported as 6 of 6.

Turning to `CC(=O)c1c(O)c2cccc3c2n(c1=O)CCC3`, the survivor count (dose: 240.0 mg/kg/injection, schedule: Q01DX005 (ip), vehicle: Klucel (hydroxypropylcellulose) (HPC)) was 0 of 6.

Take `COc1cc2c[n+](C)c3c4cc(OC)c(OCc5ccccc5)cc4c(OCc4ccccc4)cc3c2cc1OC`: the survivor count by setting is: under setting [3], 4 of 6; under setting [4], 2 of 6; under setting [5], 0 of 6.

For the compound `O=C(NCCCl)Oc1cc(Cl)c(Cl)cc1Cl`, the T/C reads like this: (dose: 25.0 mg/kg/injection, schedule: Q01DX005 (ip), vehicle: Klucel (hydroxypropylcellulose) (HPC)) 127 and 128 % of control; under setting [3], 116, 120 [5 of 6 alive], 126, 135 % of control; under setting [4], 126 % of control [5 of 6 alive]. The survivor count by setting is: under setting [4], 4 of 6; under setting [2], 3 of 6; under setting [5], 0 of 6.

In the case of `CC(C)CC(N)C(=O)OCN1C(=O)C2C3C=CC(C2C1=O)C1C2C(=O)N(COC(=O)C(N)CC(C)C)C(=O)C2C31` (stereo not drawn), under setting [6], the survivor count was 5 of 6.

For the compound `CC1(C)NNC(=S)NC1=O`, under setting [7], the survivor count was 6 of 6.

Take `Oc1ccc(/C=N/Nc2nnc(N/N=C/c3ccc(O)cc3O)c3ccccc23)c(O)c1`: the T/C (dose: 6.25 mg/kg/injection, schedule: Q01DX009 (ip), vehicle: suspension in saline) was 130 % of control [5 of 6 alive]; the T/C (dose: 12.5 mg/kg/injection, schedule: Q01DX009 (ip), vehicle: suspension in saline) was 129 [4 of 6 alive] and 130 % of control; the T/C under setting [8] was 134 % of control [5 of 6 alive]. For the same compound, the survivor count is, setting by setting: (dose: 25.0 mg/kg/injection, schedule: Q01DX009 (ip), vehicle: saline) 5 of 6; under setting [8], 5 of 6; (dose: 50.0 mg/kg/injection, schedule: Q01DX009 (ip), vehicle: suspension in saline) 4 of 6; (dose: 100.0 mg/kg/injection, schedule: Q01DX009 (ip), vehicle: suspension in saline) 5 of 6.

`CCCCCCCCCCSCC(N)C(=O)OCC` (stereo not drawn): the survivor count under setting [9] is on record as 3 of 6.

In the case of `BrC1=CC(Br)=C2N=C(N3CCCC3)N=C3N=C(C(Br)(Br)Br)N=C1N32`, the survivor count reads like this: (dose: 60.0 mg/kg/injection, schedule: Q01DX005 (ip), vehicle: Klucel (hydroxypropylcellulose) (HPC)) 6 of 6; (dose: 120.0 mg/kg/injection, schedule: Q01DX005 (ip), vehicle: Klucel (hydroxypropylcellulose) (HPC)) 6 of 6.

Regarding `CC([NH-])C(=O)O.O=C(O)CN(CC(=O)O)CC(=O)O.[Co+2]`, the survivor count under setting [6] is listed as 3 of 6 and the survivor count (dose: 300.0 mg/kg/injection, schedule: Q01DX009 (ip), vehicle: saline) is 1 of 6.

As to `CC(C)C(=NC1CCCCC1)NC(C)(C)C`, under setting [9], the survivor count was 0 of 6.

With `CCOC1CCC2C(CCC(/C=C/c3ccc(O)c4ncccc34)N2C)C1` (stereo not drawn), the T/C (dose: 6.25 mg/kg/injection, schedule: Q01DX009 (ip), vehicle: saline with Tween-80) was 128 % of control; the T/C under setting [10] is 129 % of control; the T/C (dose: 25.0 mg/kg/injection, schedule: Q01DX009 (ip), vehicle: saline with Tween-80) is 149 % of control (2×); the T/C under setting [11] was 142 % of control. The survivor count by setting is: under setting [11], 6 of 6; (dose: 100.0 mg/kg/injection, schedule: Q01DX009 (ip), vehicle: saline with Tween-80) 0 of 6.

On to `CCCCOc1cccc2c1C(=O)c1c(O)c3c(c(O)c1C2=O)C[C@@](O)(C(C)=O)C[C@@H]3OC1CC(N)C(O)C(C)O1` (stereo partly drawn), for which the T/C (dose: 12.5 mg/kg/injection, schedule: Q04DX003 (ip), vehicle: water) is 126 % of control [5 of 6 alive on day 9]; the T/C (dose: 25.0 mg/kg/injection, schedule: Q04DX003 (ip), vehicle: water, evaluated on day 30) is 141 % of control [5 of 6 alive]; the T/C (dose: 25.0 mg/kg/injection, schedule: Q04DX003 (ip), vehicle: water, evaluated on day 45) is 137 % of control.

`CC12Cc3cnoc3C=C1CCC1C2CCC2(C)C1CCC2(C)O` (stereo not drawn): under setting [1], the survivor count is recorded as 6 of 6.

For `NNC(=O)C(=O)NNC1CCCCC1`, the survivor count under setting [7] is recorded as 0 of 6.

On to `CN=C(NCCCOC)c1ccc(NC(=O)c2ccc(C(=O)Nc3ccc(C(=NC)NCCCOC)cc3)cc2)cc1`, for which the survivor count is 0 of 6 under setting [12], 0 of 6 under setting [13] and 0 of 6 under setting [14].

For the compound `CS(=O)(=O)OCCN(CCOS(C)(=O)=O)c1ccc(C(=O)O)cc1`, the T/C is 145 % of control under setting [10]; 140 % of control [5 of 6 alive] under setting [12]; 140 and 140 % of control [4 of 6 alive] under setting [13]. The survivor count was 5 of 6 under setting [9]; 5 of 6 (dose: 300.0 mg/kg/injection, schedule: Q04DX003 (ip), vehicle: saline with Tween-80); 5 of 6 under setting [14].

For the compound `CCC1(CC)c2c(ccc(OC)c2OC)C=C2c3cc4c(cc3CCN21)OCO4`, the T/C is 132 % of control (dose: 5.0 mg/kg/injection, schedule: Q01DX009 (ip), vehicle: distilled water + Tween-80) and 134 % of control (dose: 10.0 mg/kg/injection, schedule: Q01DX009 (ip), vehicle: distilled water + Tween-80). Besides, the survivor count is on record as 3 of 3 (dose: 5.0 mg/kg/injection, schedule: Q01DX009 (ip), vehicle: water); 0 of 3 (dose: 10.0 mg/kg/injection, schedule: Q01DX009 (ip), vehicle: water); 0 of 6 (dose: 20.0 mg/kg/injection, schedule: Q01DX009 (ip), vehicle: distilled water + Tween-80); 0 of 3 (dose: 20.0 mg/kg/injection, schedule: Q01DX009 (ip), vehicle: water).

Source of the values: PubChem BioAssay AID330 (DTP/NCI, 2004).
